Experimental data taken from article PMC4489036.
These are yes or no findings as the source states them, for the method shown. In cells and extracts the contact can be indirect.

By UniProt entry, the sequences of proteins in these tests, tags left out. Where a name states a change or a piece, a line headed by the entry shows the natural chain unless it says otherwise. Chains listed by the source or under a name are the forms on record and can include a tag or linker.
UniProt Q9N1U3: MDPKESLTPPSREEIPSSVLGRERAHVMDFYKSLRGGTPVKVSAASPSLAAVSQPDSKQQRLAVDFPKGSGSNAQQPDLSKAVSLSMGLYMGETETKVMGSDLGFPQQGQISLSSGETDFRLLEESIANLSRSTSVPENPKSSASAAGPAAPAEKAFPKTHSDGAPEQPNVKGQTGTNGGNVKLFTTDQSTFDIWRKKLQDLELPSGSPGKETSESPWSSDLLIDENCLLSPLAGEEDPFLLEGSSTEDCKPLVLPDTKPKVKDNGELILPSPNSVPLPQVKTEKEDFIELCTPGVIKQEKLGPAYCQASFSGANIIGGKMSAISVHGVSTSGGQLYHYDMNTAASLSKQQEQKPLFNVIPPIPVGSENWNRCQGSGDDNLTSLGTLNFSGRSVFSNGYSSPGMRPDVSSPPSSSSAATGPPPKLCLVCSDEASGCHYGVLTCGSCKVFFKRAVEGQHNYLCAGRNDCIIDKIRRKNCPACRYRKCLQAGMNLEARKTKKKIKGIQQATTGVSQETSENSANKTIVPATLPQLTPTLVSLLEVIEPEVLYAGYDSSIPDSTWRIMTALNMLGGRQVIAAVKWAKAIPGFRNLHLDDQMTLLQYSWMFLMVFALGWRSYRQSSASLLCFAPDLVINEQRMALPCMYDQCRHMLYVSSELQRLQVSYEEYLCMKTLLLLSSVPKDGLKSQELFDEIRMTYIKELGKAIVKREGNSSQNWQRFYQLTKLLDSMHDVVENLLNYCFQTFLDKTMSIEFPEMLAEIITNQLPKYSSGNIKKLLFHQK
UniProt Q9GKL7: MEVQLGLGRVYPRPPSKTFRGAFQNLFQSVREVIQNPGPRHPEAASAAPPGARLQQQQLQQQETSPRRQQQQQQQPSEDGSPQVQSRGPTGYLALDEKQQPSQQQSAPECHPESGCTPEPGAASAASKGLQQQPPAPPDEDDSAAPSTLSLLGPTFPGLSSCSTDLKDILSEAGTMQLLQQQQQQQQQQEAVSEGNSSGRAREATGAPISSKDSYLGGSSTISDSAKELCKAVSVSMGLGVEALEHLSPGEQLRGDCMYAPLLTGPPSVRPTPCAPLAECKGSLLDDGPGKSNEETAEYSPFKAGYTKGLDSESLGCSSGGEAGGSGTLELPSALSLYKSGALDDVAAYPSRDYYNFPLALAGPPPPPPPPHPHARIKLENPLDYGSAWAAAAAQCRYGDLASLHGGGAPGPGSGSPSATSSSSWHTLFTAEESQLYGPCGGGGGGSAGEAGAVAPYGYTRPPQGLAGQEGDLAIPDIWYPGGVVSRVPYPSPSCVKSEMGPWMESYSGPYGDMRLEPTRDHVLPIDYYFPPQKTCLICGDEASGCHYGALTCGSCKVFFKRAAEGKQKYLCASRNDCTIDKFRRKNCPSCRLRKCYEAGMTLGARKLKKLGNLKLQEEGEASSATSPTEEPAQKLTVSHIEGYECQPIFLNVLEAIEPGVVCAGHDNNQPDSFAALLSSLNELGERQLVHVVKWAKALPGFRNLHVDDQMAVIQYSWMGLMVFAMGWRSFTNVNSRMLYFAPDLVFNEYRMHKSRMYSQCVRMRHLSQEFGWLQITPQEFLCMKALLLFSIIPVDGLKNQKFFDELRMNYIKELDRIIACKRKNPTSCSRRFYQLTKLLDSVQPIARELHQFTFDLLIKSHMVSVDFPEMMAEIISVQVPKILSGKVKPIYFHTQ
androgen receptor (Q9GKL7, form named): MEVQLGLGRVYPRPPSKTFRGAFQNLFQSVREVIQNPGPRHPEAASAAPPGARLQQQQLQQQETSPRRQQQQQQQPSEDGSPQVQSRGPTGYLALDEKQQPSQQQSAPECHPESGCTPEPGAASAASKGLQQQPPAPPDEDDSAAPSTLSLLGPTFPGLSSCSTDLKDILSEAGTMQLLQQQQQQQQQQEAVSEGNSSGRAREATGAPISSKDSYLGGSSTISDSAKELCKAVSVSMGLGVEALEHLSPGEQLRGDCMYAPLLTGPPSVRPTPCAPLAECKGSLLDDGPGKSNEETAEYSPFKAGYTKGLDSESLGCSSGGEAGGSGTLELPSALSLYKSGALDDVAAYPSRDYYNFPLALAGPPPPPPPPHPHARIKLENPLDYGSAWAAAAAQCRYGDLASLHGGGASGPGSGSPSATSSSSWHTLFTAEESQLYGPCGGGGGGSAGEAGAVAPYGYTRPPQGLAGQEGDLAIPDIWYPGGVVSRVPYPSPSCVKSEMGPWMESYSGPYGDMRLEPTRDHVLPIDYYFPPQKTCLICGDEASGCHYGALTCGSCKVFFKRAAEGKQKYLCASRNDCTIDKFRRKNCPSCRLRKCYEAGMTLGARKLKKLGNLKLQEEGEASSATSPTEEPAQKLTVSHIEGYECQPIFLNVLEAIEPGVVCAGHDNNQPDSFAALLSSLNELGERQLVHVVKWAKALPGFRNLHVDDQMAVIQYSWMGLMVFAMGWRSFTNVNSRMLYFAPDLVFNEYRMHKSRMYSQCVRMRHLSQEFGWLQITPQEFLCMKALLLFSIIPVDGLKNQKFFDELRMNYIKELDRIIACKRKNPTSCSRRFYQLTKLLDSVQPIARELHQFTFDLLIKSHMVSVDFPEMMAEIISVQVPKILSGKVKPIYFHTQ

Experiments:
[1] = molecular target: T1, CCAAT/enhancer binding protein β (pig (endogenous in piglet liver)) (UniProt E5Q8C6); assay: co-IP; 500 ug total protein of piglet liver (pooled samples of 5 LW and of 6 EHL pigs), precleared with protein A/G plus beads; 4 ug C/EBPβ or GR antibody overnight at 4 °C; agarose beads 2 h at 4 °C; Western blot for GR or AR
T1 sequence: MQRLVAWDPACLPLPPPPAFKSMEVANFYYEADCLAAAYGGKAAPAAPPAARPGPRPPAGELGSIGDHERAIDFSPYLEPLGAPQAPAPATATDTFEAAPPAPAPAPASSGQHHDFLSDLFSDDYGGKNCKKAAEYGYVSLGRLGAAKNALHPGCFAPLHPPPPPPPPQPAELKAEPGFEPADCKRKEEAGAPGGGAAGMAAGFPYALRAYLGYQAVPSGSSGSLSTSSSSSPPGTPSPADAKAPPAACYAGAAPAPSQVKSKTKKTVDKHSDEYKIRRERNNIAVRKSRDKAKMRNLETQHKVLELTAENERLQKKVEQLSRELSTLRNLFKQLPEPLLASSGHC

[2] = molecular target: glucocorticoid receptor (pig (endogenous in piglet liver)) (UniProt Q9N1U3); assay: as above

binding [1]	binding [2]	Substance
no binding	–	glucocorticoid receptor (from UniProt Q9N1U3 1-782)
–	no binding	androgen receptor (from UniProt Q9GKL7 1-896)
